PubChem BioAssay AID686937, Drosophila RNAi Screening Center – 2013
The screen tested about 23,000 reagents; this is an unselected part of those that have a named target and a result. 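Reduced-secretion tags in replicate 1 do not always agree with the z-scores; no criterion for assigning the tags was given.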 A plus sign joins genes that one reagent is predicted to hit. Further read-outs or replicates are left out here. Not stated in the record: the amount of reagent.

Assay: 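Genes in the fly needed for secretion of protein constitutively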 (primary screen)
System: Drosophila S2 cells expressing secreted horseradish peroxidase
Reagents: long dsRNA against Drosophila genes
Timing: about 5.5 days (5 days dsRNA, then 12 h reporter induction)
Challenge: reporter expression induced after 5 days of dsRNA, read 12 h later; inducer not stated
Detection: 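After 5 days of dsRNA and 12 h of reporter induction, medium peroxidase read by chemiluminescence and scored as per-plate z-score; higher values mean more reporter released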
Reading the numbers: z-score: higher = more reporter secreted into medium

How did the screen score sinu (sinuous) [DRSC09752]?
z-score, replicate 1: 0.7

What did the screen give for CG17528 [DRSC07761]?
z-score, replicate 1: 0.24

What is on record for Sodh2 (Sorbitol dehydrogenase 2) [DRSC16865]?
z-score, replicate 1: 0.29

What did the screen give for BaraA1 + BaraA2 [DRSC05417]?
z-score, replicate 1: 0.13

What did the screen give for CG9269 [DRSC16465]?
z-score, replicate 1: 0.36

With crn (crooked neck) [DRSC18184], what does the deposit list?
z-score, replicate 1: -2.74; phenotype, replicate 1: reduced secretion

For crn (crooked neck) [DRSC18185], what was measured?
z-score, replicate 1: -2.37; phenotype, replicate 1: reduced secretion

For crn (crooked neck) [DRSC18755], what does the deposit list?
z-score, replicate 1: -5.41; phenotype, replicate 1: reduced secretion

For can (cannonball) [DRSC10664], how do the results read?
z-score, replicate 1: 0.72

With CG10051 [DRSC05959], what does the deposit list?
z-score, replicate 1: 0.4

With Ir94g (Ionotropic receptor 94g) [DRSC15231], what does the deposit list?
z-score, replicate 1: 0.36

Which result is listed for vap (vacuolar peduncle) [DRSC20275]?
z-score, replicate 1: 0.04

What did the screen give for BobA [DRSC09889]?
z-score, replicate 1: 0.08

Which result is listed for CG13982 [DRSC02314]?
z-score, replicate 1: 0.02

For CG10317 [DRSC14229], what was measured?
z-score, replicate 1: 0.29

How did the screen score CG31510 [DRSC14182]?
z-score, replicate 1: 0.26

For CG2818 [DRSC00540], how do the results read?
z-score, replicate 1: 0.35

What is on record for Rabex-5 (Rabaptin-5-associated exchange factor for Rab5) [DRSC08628]?
z-score, replicate 1: 0.27

With CG12360 (retired record) [DRSC14505], what does the deposit list?
z-score, replicate 1: 0.41

What did the screen give for CG14301 [DRSC14780]?
z-score, replicate 1: 0.32

Which result is listed for bin (biniou) [DRSC10332]?
z-score, replicate 1: 0.23

What is on record for Ravus [DRSC15126]?
z-score, replicate 1: 0.39

What is on record for Cpr62Bc (Cuticular protein 62Bc) [DRSC08545]?
z-score, replicate 1: 0.34

For CG10859 [DRSC02110], how do the results read?
z-score, replicate 1: 0.31

With CG7992 [DRSC20070], what does the deposit list?
z-score, replicate 1: 0.13

For PGRP-LD + Pmi [DRSC10512], what does the deposit list?
z-score, replicate 1: 0.24

With PGRP-LD + Pmi [DRSC10513], what was measured?
z-score, replicate 1: 0.26

Limited to “z-score, replicate 1” (3 entries from above):
crn (crooked neck) [DRSC18755] = -5.41
can (cannonball) [DRSC10664] = 0.72
CG10051 [DRSC05959] = 0.4
